Laboratory results published in patent US20210275695A1 (CASE WESTERN RESERVE UNIVERSITY, published 2021).
No constants are given. Whether binding was seen depends on the method and setting. Some binding calls cover weakened binding; strength is not graded here.

Sequences of proteins named here, by UniProt entry; tags and fusion partners are left off. Residues count along the entry.
UniProt P11276, residues 33-2477: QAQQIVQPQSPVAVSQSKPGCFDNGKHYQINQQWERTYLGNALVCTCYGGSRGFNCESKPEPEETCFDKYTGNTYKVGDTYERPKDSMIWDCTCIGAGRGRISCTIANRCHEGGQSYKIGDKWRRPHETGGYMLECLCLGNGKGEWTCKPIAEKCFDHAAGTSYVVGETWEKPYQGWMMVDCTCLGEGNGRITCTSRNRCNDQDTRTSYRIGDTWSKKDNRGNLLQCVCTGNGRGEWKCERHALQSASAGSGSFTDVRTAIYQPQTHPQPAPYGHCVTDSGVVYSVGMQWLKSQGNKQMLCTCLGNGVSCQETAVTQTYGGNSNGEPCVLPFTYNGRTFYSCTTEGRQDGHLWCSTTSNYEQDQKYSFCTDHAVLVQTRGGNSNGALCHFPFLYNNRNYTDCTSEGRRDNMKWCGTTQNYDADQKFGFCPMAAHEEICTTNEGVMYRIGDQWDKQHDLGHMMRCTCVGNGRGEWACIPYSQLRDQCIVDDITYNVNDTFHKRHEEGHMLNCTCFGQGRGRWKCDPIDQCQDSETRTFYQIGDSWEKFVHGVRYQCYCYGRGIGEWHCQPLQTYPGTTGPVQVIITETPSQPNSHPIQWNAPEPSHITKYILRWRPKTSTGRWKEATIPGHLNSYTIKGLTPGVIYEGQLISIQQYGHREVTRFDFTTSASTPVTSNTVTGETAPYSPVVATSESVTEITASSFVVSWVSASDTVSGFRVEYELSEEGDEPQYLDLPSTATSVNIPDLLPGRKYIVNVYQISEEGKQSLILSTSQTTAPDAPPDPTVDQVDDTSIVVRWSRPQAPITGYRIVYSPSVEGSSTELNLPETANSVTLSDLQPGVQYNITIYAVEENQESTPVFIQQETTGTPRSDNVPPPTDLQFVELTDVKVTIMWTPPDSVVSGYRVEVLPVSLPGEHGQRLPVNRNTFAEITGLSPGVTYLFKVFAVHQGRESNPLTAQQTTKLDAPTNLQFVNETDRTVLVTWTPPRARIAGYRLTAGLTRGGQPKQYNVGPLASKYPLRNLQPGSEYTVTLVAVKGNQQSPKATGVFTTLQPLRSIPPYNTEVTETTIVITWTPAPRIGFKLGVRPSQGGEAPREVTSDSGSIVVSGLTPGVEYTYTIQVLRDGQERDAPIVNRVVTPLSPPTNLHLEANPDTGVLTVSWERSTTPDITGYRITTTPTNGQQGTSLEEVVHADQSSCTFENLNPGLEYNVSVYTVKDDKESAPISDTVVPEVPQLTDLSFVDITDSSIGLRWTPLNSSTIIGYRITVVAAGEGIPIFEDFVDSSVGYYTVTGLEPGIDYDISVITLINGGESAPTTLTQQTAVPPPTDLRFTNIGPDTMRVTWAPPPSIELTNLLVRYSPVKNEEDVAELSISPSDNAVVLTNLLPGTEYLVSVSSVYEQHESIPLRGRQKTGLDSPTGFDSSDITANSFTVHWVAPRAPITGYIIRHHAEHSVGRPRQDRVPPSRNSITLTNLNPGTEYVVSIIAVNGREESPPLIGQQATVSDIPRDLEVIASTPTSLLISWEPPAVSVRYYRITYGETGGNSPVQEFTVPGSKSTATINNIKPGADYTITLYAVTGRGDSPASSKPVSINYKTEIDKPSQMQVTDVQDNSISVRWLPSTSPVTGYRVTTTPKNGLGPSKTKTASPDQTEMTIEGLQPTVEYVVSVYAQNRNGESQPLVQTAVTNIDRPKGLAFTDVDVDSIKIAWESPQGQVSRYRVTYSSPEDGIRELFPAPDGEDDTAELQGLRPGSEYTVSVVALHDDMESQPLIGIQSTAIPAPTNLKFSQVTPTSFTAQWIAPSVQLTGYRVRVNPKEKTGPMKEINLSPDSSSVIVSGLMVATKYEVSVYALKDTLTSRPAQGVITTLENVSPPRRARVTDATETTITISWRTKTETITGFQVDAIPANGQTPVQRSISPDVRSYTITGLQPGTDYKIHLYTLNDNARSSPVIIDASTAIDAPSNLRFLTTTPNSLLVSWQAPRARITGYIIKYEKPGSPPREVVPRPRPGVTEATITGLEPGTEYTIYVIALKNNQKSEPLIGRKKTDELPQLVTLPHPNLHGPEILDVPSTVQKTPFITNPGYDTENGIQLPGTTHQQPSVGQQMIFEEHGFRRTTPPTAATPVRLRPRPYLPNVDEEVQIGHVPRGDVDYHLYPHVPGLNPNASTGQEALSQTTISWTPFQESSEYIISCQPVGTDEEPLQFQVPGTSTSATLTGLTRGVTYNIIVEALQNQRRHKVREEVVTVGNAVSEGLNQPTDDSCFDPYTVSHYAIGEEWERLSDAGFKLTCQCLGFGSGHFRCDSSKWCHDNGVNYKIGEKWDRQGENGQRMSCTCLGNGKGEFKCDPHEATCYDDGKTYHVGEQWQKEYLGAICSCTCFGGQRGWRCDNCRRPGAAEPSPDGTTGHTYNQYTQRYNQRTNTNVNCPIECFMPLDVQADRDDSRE

Biological target: extradomain-B fibronectin (EDB-FN) produced by TGFbeta-induced 4T1 cells (UniProt P11276)
Experiment: fluorescence staining of TGFbeta induced 4T1 cells in culture

binding: binds
Binder: TVRTSAD (Cy5 label; the site and the linker are not described in Example 2) [l-ZD2-Cy5 (Cy5 labeled linear ZD2, TVRTSAD)]
